Measurements taken from PubChem BioAssay AID504467 (National Center for Advancing Translational Sciences (NCATS), 2011).
Out of some 330,000 compounds screened, about 7,700 (2.3%) were called active. Inconclusive results, whose numbers are uncertain, are shown with a selection of clear calls. Calls follow the shape of the dose curve; as a rule, active = well fitted inhibition curve with a large enough effect; inconclusive = small, poorly fitted or top-dose-only effect, or effect the other way; inactive = flat fitted curve, though single readings scatter. Where the call is inconclusive, the potency comes from a doubtful curve fit.

Test: qHTS screen for small molecules that inhibit ELG1-dependent DNA repair in human embryonic kidney (HEK293T) cells expressing luciferase-tagged ELG1; also: nearly all actives have a fitted effect of over 55% in size
Settings: HEK293T ELG1-luciferase reporter, luminescence, 16 h, DNA damage induced by 5-fluorouridine; series mostly up to 46.1 µM
Outline: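 Reporter activity after DNA damage by 5-fluorouridine is monitored. Compound-treated cells incubate 16 hr at 37 °C, then ONE-Glo is added for 30 min before luminescence reading.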
Potency is read from the fitted curve at half-maximal effect.

SMILES	Potency
Cc1ccn2cc(CC(=O)O)nc2c1	inactive
c1ccc2c(c1)Cc1cc3ccccc3nc1-2	inconclusive: 3.26 µM [activator, full curve]
O=C(CNC(=O)c1cccc(F)c1)NC1CC1	inactive
CCOC(=O)c1cn(-c2ccccc2)nc1-c1ccncc1	inconclusive: 25.1 µM [inhibitor, single point]
COc1ccc(OCCSc2nnc(CC(=O)Nc3cccc(Cl)c3Cl)n2C)cc1	inconclusive: 29.1 µM [activator, single point]
Cc1nnc(N2CCC(C(=O)N3CCCCCC3)CC2)c2nn(-c3ccc(Cl)cc3)c(C)c12	inconclusive: 16.4 µM [inhibitor, partial curve]
CC(C)Cn1cc(C(=O)NCc2cccs2)c2c3ccccc3n(C)c2c1=O	inconclusive: 20.6 µM [inhibitor, partial curve, poor fit]
O=C(C1CCCN(S(=O)(=O)c2ccc(F)cc2)C1)N(Cc1cccs1)C1CC1 (stereo not drawn)	active: 11.6 µM
O=C(Nc1ccc(Br)cc1)C1CC(c2c(F)cccc2Cl)=NO1 (stereo not drawn)	inactive
CCCCOc1ccc(/C=N/NC(=S)Nc2cc(C)ccc2C)cc1	inactive
O=C(Nc1nc(-c2ccccn2)cs1)C1COc2ccccc2O1 (stereo not drawn)	inactive
Cc1cccc(S(=O)(=O)N2CN(Cc3ccco3)c3nc4ccccc4nc32)c1	inactive
Cc1cc(/C=C(\C#N)c2nc3ccccc3[nH]2)c(C)n1C	inconclusive: 2.91 µM [activator, full curve]
CCC1CCC2(CC1)NC(=O)N(CC(=O)Nc1ccc(OC)c(Cl)c1)C2=O (stereo not drawn)	inactive
O=C(N/C(=C\c1cccc([N+](=O)[O-])c1)C(=O)N1CCOCC1)c1ccco1	inactive
COc1ccc(C(=O)Nc2ccnn2C2CCN(C(=O)CCC(F)(F)F)CC2)cc1	inconclusive: 20.6 µM [activator, single point]
O=C(O)c1ccc2nc3c(nc2c1)-c1ccccc1C3=O	inconclusive: 18.3 µM [activator, single point]
c1ccc2sc(SCc3ccc(-c4nnco4)cc3)nc2c1	inconclusive: 2.91 µM [activator, partial curve]
Cc1ccc(-c2noc(CN(C(=O)Cc3ccccc3)C(C)C)n2)cc1	inactive
O=C(CSCc1c(Cl)cccc1Cl)Nc1cccnc1	inactive
O=C(NCCC1=CCCCC1)C(=O)NCC1OCCCN1S(=O)(=O)c1cc(F)ccc1F (stereo not drawn)	inconclusive: 18.3 µM [inhibitor, single point]
COc1cc(OC)c(-c2nc3cnccc3n2C)cc1OC	inconclusive: 11.6 µM [activator, partial curve, poor fit]
NS(=O)(=O)c1cc(C(=O)OCC(=O)N2CCc3ccccc3C2)ccc1Cl	inactive
N#Cc1cccc(NC(=O)Cn2cnc(S(=O)(=O)N3CCCCC3)c2)c1	inactive
Brc1cc2c(cc1-c1nc3ccccc3s1)OCO2	inconclusive: 16.4 µM [activator, single point]

SMILES	Potency
CC1CCN(S(=O)(=O)c2cccc(C(=O)Nc3nncs3)c2)CC1	inactive
CC1(C)CN2C(=O)c3ccccc3C2(C)S1 (stereo not drawn)	inactive
CSc1cccc(NC(=O)CC2Oc3ccccc3NC2=O)c1 (stereo not drawn)	inactive
CN(C(=O)C1CCN(c2ncnc3c2nc2n3CCCCC2)CC1)C1CCCCC1	inconclusive: 23.1 µM [inhibitor, partial curve]
CCOC(=O)c1ccc2nc(C)c(CCC(C)=O)c(Cl)c2c1	inconclusive: 5.62 µM [activator, partial curve]
Cc1ccc(CNC(=O)CCn2cc(-c3ccc(C)cc3)nc2CCN)cc1	inconclusive: 25.1 µM [activator, single point]
CCN(CC)S(=O)(=O)c1ccc(N2CCCC2)c(NC(=O)c2nn(C)c(=O)c3ccccc23)c1	active: 18.3 µM
O=C(CSc1nc(-c2ccc(F)cc2)cs1)Nc1ccccn1	inactive
Cc1cccc(NC(=O)c2cnc3scc(C)n3c2=O)c1	inconclusive: 9.2 µM [activator, partial curve]
COc1ccccc1C(=O)COC(=O)c1cc(S(=O)(=O)N2CCCCC2)ccc1N1CCOCC1	inconclusive: 2.06 µM [inhibitor, partial curve, poor fit]
C#CC(C)(CC)NC(=O)Cn1nnc(-c2cccc(C(F)(F)F)c2)n1 (stereo not drawn)	inconclusive: 3.66 µM [inhibitor, single point]
O=C(CSc1nc2ccc(Nc3nc(N4CCOCC4)nc(N4CCOCC4)n3)cc2s1)Nc1ccccc1F	active: 2.59 µM
COc1ccc(-c2cn[nH]c2-c2ccc(OCc3ccccc3)cc2O)cc1OC	active: 13 µM
N#Cc1c(C(F)(F)F)cc(-c2cccc(Cl)c2)[nH]c1=O	inactive
O=C(NCc1ccc2c(c1)OCO2)c1cc(-c2ccncc2)nc2ccccc12	inconclusive: 32.6 µM [inhibitor, single point]
CC(C)(C)OC(=O)[C@H](CCCCN)NC(=O)c1nc[nH]c1C(=O)NCCCCCN	inactive
O=C1COc2ccc(C(=O)c3ccccc3C(=O)NCc3ccco3)cc2N1	inactive
COc1ccc(C(=O)c2oc3nc(C)cc(C)c3c2N)cc1	inconclusive: 20.6 µM [activator, single point]
BrC(=C\c1ccccc1)/C=N/Nc1nc2ccccc2[nH]1	inconclusive: 20.6 µM [activator, partial curve]
C[C@H]1CN([C@@H](C)CO)C(=O)c2cc(NC(=O)NC3CCCCC3)ccc2O[C@H]1CN(C)C(=O)Nc1ccc(C(F)(F)F)cc1	inconclusive: 8.2 µM [inhibitor, partial curve]
CCC1CCCCN1CC(=O)Nc1cc(C)nn1-c1nc(C)cc(C)n1 (stereo not drawn)	inconclusive: 29.1 µM [inhibitor, single point]
COc1ccc2nc(Nc3nc(CSc4nc5ccccc5[nH]4)cc(=O)[nH]3)nc(C)c2c1	active: 5.8 µM
COc1ccccc1N1CCN(C(=O)CSc2ccccc2)CC1	inconclusive: 16.4 µM [activator, partial curve]
CC1CCC(NC(=O)c2ccc3c(c2)OCO3)CC1 (stereo not drawn)	inconclusive: 1.46 µM [activator, partial curve]
CCOC(=O)Cc1csc(NC(=O)COc2ccc(N(C)S(=O)(=O)c3cccs3)cc2)n1	active: 18.4 µM

22 entries from above in a different format.

| SMILES | Potency |
| --- | --- |
| Cc1cccc(S(=O)(=O)N2CN(Cc3ccco3)c3nc4ccccc4nc32)c1 | inactive |
| Cc1cc(/C=C(\C#N)c2nc3ccccc3[nH]2)c(C)n1C | inconclusive: 2.91 µM [activator, full curve] |
| CCC1CCC2(CC1)NC(=O)N(CC(=O)Nc1ccc(OC)c(Cl)c1)C2=O (stereo not drawn) | inactive |
| O=C(N/C(=C\c1cccc([N+](=O)[O-])c1)C(=O)N1CCOCC1)c1ccco1 | inactive |
| COc1ccc(C(=O)Nc2ccnn2C2CCN(C(=O)CCC(F)(F)F)CC2)cc1 | inconclusive: 20.6 µM [activator, single point] |
| O=C(O)c1ccc2nc3c(nc2c1)-c1ccccc1C3=O | inconclusive: 18.3 µM [activator, single point] |
| c1ccc2sc(SCc3ccc(-c4nnco4)cc3)nc2c1 | inconclusive: 2.91 µM [activator, partial curve] |
| Cc1ccc(-c2noc(CN(C(=O)Cc3ccccc3)C(C)C)n2)cc1 | inactive |
| O=C(CSCc1c(Cl)cccc1Cl)Nc1cccnc1 | inactive |
| O=C(NCCC1=CCCCC1)C(=O)NCC1OCCCN1S(=O)(=O)c1cc(F)ccc1F (stereo not drawn) | inconclusive: 18.3 µM [inhibitor, single point] |
| COc1cc(OC)c(-c2nc3cnccc3n2C)cc1OC | inconclusive: 11.6 µM [activator, partial curve, poor fit] |
| NS(=O)(=O)c1cc(C(=O)OCC(=O)N2CCc3ccccc3C2)ccc1Cl | inactive |
| N#Cc1cccc(NC(=O)Cn2cnc(S(=O)(=O)N3CCCCC3)c2)c1 | inactive |
| Brc1cc2c(cc1-c1nc3ccccc3s1)OCO2 | inconclusive: 16.4 µM [activator, single point] |
| CC1CCN(S(=O)(=O)c2cccc(C(=O)Nc3nncs3)c2)CC1 | inactive |
| CC1(C)CN2C(=O)c3ccccc3C2(C)S1 (stereo not drawn) | inactive |
| CSc1cccc(NC(=O)CC2Oc3ccccc3NC2=O)c1 (stereo not drawn) | inactive |
| CN(C(=O)C1CCN(c2ncnc3c2nc2n3CCCCC2)CC1)C1CCCCC1 | inconclusive: 23.1 µM [inhibitor, partial curve] |
| CCOC(=O)c1ccc2nc(C)c(CCC(C)=O)c(Cl)c2c1 | inconclusive: 5.62 µM [activator, partial curve] |
| Cc1ccc(CNC(=O)CCn2cc(-c3ccc(C)cc3)nc2CCN)cc1 | inconclusive: 25.1 µM [activator, single point] |
| CCN(CC)S(=O)(=O)c1ccc(N2CCCC2)c(NC(=O)c2nn(C)c(=O)c3ccccc23)c1 | active: 18.3 µM |
| O=C(CSc1nc(-c2ccc(F)cc2)cs1)Nc1ccccn1 | inactive |

Going on with the list.

SMILES	Potency
COC(=O)CN(c1ccc(F)cc1)S(=O)(=O)c1ccccc1	inactive
CC(=O)Nc1ccc(SC[C@H](C)CN2CC[C@H](C(C)(C)C)CCC2=O)cc1	inconclusive: 29.1 µM [inhibitor, single point]
COc1ccc(OC)c(-c2nnc3n2N=C(c2ccc(OC(F)F)c(OCC4CC4)c2)CS3)c1	active: 11.6 µM
COc1ccc(CNC(=O)CSc2nc3cccnc3s2)cc1	inconclusive: 29.1 µM [activator, single point]
COc1cc(C(C)=O)ccc1OCCCOc1cccc2cccnc12	inactive
COc1ccc(NS(=O)(=O)c2cccc(NC(=O)c3ccc(Cl)nc3)c2)cc1	inconclusive: 0.651 µM [inhibitor, full curve]
CCOc1ccc(S(=O)(=O)N2CCCC(C(=O)NCc3ccccc3)C2)cc1 (stereo not drawn)	inconclusive: 2.06 µM [inhibitor, partial curve, poor fit]
CCOC(=O)c1cnc(-n2cc(C)cn2)nc1NCc1ccc2c(c1)OCO2	inconclusive: 11.6 µM [inhibitor, partial curve]
COCC1CCN(C(=O)c2ccc3oc(CCCc4ccccc4)nc3c2)C1 (stereo not drawn)	inconclusive: 18.3 µM [activator, partial curve]
COc1ccc(N2C(=O)CC(Sc3n[nH]c(-c4ccc(C)cc4)n3)C2=O)cc1 (stereo not drawn)	inconclusive: 23.1 µM [activator, single point]
CCOc1ccc(C(=O)OCC(=O)N2CCCC2)cc1	inconclusive: 16.4 µM [activator, single point]
CC1CC(C)C[N+](=C2C=C(N3CCCC3)CC(C)(C)C2)C1 (stereo not drawn)	inconclusive: 1.3 µM [inhibitor, partial curve, poor fit]
OCCC1CN(Cc2cc(F)ccc2F)CCN1CCCc1ccccc1 (stereo not drawn)	inactive
O=C1C=C(N2CCCCCC2)C(=O)N1c1ccc(Cl)cc1	inconclusive: 16.4 µM [activator, partial curve]
O=C1CCCC2=C1C(c1ccc(O)c(O)c1)Nc1ccc3ncccc3c12 (stereo not drawn)	inconclusive: 25.9 µM [activator, single point]
O=C(c1ccc(S(=O)(=O)N2CCCC2)cc1)N1CCC(CN2C(=O)c3cccc4cccc(c34)C2=O)CC1	active: 10.3 µM
COc1ccc(Oc2nc(C)cc(C)c2C#N)cc1	inactive
CN1C/C(=C/c2ccncc2)C(=O)/C(=C/c2ccncc2)C1	inconclusive: 29.1 µM [inhibitor, single point]
CCCOc1ccc(-c2csc(NC(=O)CN3C(=O)CCC3=O)n2)cc1	inconclusive: 25.9 µM [activator, partial curve, poor fit]
O=C(CSc1nnc(Nc2ccccc2F)s1)NC1CC1	inconclusive: 16.4 µM [activator, partial curve]
Cc1cc(OCC(=O)Nc2ccc3c(c2)OCCO3)ccc1Cl	inconclusive: 11.2 µM [activator, partial curve]
CC1COc2ccccc2N1S(=O)(=O)c1ccc(Cl)cc1 (stereo not drawn)	inconclusive: 13 µM [inhibitor, partial curve, poor fit]
Cc1cc(CSc2ccccc2)ccc1NC(=O)COc1ccccc1C	inconclusive: 18.4 µM [activator, single point]
